Measurements as given in publication PMC2683942, “Unc5B Interacts with FLRT3 and Rnd1 to Modulate Cell Adhesion in Xenopus Embryos” (PLoS ONE, 2009).
These are yes or no findings as the source states them, for the method shown. For part of these data: Binding seen in cells or lysates may run through a third protein. For part of these data: Where a sequence is shown, tags or fusion partners need not be part of it.

Sequences of proteins named here, by UniProt entry; tags and fusion partners are left off. A change or cut given only in a name is not applied to a line headed by its entry.
UniProt Q8JGT4: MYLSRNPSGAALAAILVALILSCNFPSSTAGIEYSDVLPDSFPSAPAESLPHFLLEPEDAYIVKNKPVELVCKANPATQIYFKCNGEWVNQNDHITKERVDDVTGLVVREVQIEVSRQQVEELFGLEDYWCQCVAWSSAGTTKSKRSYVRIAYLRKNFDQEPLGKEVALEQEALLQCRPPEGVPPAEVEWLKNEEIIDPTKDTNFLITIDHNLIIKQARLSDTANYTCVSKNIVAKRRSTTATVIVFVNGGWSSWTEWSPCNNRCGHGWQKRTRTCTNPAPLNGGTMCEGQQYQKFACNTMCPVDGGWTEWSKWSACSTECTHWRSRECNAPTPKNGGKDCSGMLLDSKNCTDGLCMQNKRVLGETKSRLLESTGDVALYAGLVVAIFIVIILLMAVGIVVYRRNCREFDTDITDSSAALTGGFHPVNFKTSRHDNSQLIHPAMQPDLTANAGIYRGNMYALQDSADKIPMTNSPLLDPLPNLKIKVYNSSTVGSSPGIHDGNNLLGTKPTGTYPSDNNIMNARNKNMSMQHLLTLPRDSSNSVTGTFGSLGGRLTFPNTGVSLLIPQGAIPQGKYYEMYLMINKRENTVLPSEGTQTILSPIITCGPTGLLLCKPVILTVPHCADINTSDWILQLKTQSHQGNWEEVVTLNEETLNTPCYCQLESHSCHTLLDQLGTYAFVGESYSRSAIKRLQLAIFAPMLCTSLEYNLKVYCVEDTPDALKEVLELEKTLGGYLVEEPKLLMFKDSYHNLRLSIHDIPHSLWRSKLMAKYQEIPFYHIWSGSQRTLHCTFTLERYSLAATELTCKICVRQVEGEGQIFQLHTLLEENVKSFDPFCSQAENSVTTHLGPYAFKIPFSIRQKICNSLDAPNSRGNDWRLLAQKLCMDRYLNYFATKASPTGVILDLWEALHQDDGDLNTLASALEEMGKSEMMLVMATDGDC
UniProt P61586: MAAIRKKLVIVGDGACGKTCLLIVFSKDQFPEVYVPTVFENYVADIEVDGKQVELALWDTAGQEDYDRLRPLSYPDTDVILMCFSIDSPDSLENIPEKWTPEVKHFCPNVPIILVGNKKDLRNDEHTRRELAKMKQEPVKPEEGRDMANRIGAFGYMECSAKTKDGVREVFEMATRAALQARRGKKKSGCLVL

Experiments:
Unc5BΔD (Xenopus) = Unc5BΔD (Xenopus) (UniProt Q8JGT4); assay: co-IP; lysates of HEK293T cells overexpressing V5- and HA-tagged proteins, immunoprecipitation and immunoblotting
Robo2 = assay: cell surface binding of an alkaline phosphatase fusion protein, chromogenic stain; transfected HEK293T cells incubated 1 h at RT with concentrated AP-FLRT3ΔTM conditioned medium (3 to 8 U/ml AP activity) in DMEM, 10% FCS, 50 mM HEPES; washed with PBS; bound AP stained with Fast Red
Robo3 = assay: as above

Row | binding (Unc5BΔD (Xenopus)) | Molecule | binding (Robo2) | binding (Robo3)
1 | no binding | RhoA (from UniProt P61586 1-193) | – | –
2 | – | soluble alkaline phosphatase-FLRT3 ectodomain fusion protein (AP-FLRT3ΔTM) (domain or fragment, Xenopus, UniProt Q70AK3 29-527, looked up, FLRT3, Xenopus, ectodomain (ΔTM); also called AP-tagged FLRT3ΔTM; source: conditioned medium, concentrated) KPCPSVCRCDAGFIYCNDRDLTSIPSGIPDDATTLYLQNNQINNAGIPSDLKGLDKVERIYLYRNSLDEFPINLPKNVKELHLQENNIRTITYDALLQIPFIEELHLDDNSVSAVSIEDGAFRDNIFLRLLFLSRNHLSTIPWGLPKTIEELRLDDNRISTISEISLQDLTNLKRLVLDGNLLNNNGLGERVFMNLINLTELSLVRNSLTSPPANLPGTSLRKLYLQENHMNYVPPNSFADLTQLYRLDMSNNNLTALPQGIFDDLDNLTQLFLRNNPWYCGCKMKWVRDWLQSLPSKVNVRGLMCQAPERVRGMTIKDLNKELFDCKDRIGSNTIHVTTTMLNSLLPAQGQWPVPVTKQPEIRPPDINKIFRTTPIPVKKIITIQVKSITTETIYISWKVALPMTALRLSWQLGHSPVFGSITETIVTGDRAEYLLTALEPESPYRICMVPMETGNIYLSDETPVCIETETAPLKMYNPTTTLNREQEKEPYKNSSLP | no binding (tested: 3 to 8 U/ml AP activity) | no binding (tested: 3 to 8 U/ml AP activity)
